In all, about 400,000 compounds went through this assay and about 5,500 (1.4%) were called active. The shares of active, inactive and inconclusive entries below differ from those in the screen. Calls come from the whole dose curve; as a rule, active = well fitted cell-killing curve with a large enough effect; inconclusive = small, poorly fitted or top-dose-only effect, or effect the other way; inactive = flat fitted curve, though single readings scatter. A potency beside an inconclusive call is a rough fit, not a confirmed value.
Experiment: qHTS assay for MDR1-selective chemotherapeutics: Primary screen using the parental adenocarcinoma cell KB-3-1; note: nearly all actives have a fitted effect of over 60% in size
Conditions: KB-3-1 viability, CellTiter-Glo ATP luminescence, 72 h; activity change, negative = cytotoxic: at 46.1 µM (top of the series)
In short: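 72 h, 37 °C compound treatment of KB-3-1 parental cells; CellTiter-Glo added, 10 min, luminescence read. Data corrected against DMSO-only plates and normalized before curve fitting.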
% is set by controls: 0 for no effect and ±100 for the full control effect; potency is the fitted concentration of half-maximal effect.

Row | SMILES | Potency | activity change, negative = cytotoxic
1 | Cc1cc(C(=O)CSc2n[nH]c(N)n2)c(C)n1-c1ccc2c(c1)OCO2 | inconclusive: 16.4 µM [cytotoxic, single point] | 
2 | OC(CN1CCN(Cc2ccc3c(c2)OCO3)CC1)c1c[nH]c2ccccc12 (centres undefined) | inactive | 
3 | CCOC(=O)N1CCC(NC(=O)c2cc(C(=O)Nc3cccc(C(F)(F)F)c3)ccc2CO)CC1 | inconclusive: 10.3 µM [cytotoxic, partial curve] | 
4 | CCN(Cc1cnn(C)c1)C(=O)CC1C(=O)NCCN1Cc1cccc(OC)c1OC (centres undefined) | inactive | 
5 | O=[N+]([O-])c1cc([N+](=O)[O-])c2oc(-c3ccccc3)c(Br)c2c1O | inconclusive: 11.6 µM [cytotoxic, partial curve] | 
6 | O=[N+]([O-])c1ccc(S(=O)(=O)N2CCC3(CC2)OCCN3S(=O)(=O)c2cccs2)cc1 | inactive | 
7 | COc1cc(OC)cc(C(=O)OC(C)C(=O)NC2CCCc3ccccc32)c1 (centres undefined) | inactive | 
8 | COc1ccc(N2CCN(CCCNC(=O)Nc3ccccc3Cl)CC2)cc1 | inconclusive: 29.1 µM [cytotoxic, single point] | 
9 | CCCCCCc1cc2cc(/C(N)=N/NC(=O)c3ccncc3)c(=O)oc2cc1O | inactive | 
10 | CCOc1ccc(C2=C(C=C(C#N)C#N)C(c3ccccc3)c3ccccc3O2)cc1 (centres undefined) | inactive | 
11 | O=C1CCCc2nc3c(cc21)C(O)Oc1c-3ccc2ccccc12 (centres undefined) | inconclusive: 23.1 µM [cytotoxic, single point] | 
12 | CCN(CC)c1c(C)nc2ccc(C(=O)N3CCN(C(=O)c4ccco4)CC3)cn12 | inactive | 
13 | Cc1[nH]c2ccccc2c1C(=O)/C=C/c1ccccc1Cl | inactive | 
14 | Cn1ncc(Br)c1NC(=O)Nc1ccc(OC(F)(F)F)cc1 | inconclusive: 0.0731 µM [cytotoxic, full curve] | 
15 | COc1cccc(CNC(=O)CS(=O)(=O)Cc2nc(-c3ccc(C)cc3)oc2C)c1OC | inconclusive: 0.0058 µM [cytotoxic, full curve] | 
16 | CCN(CC)CCCN(Cc1cc2cc(OC)c(OC)cc2[nH]c1=O)C(=O)Nc1ccccc1 | inactive | 
17 | CCOC(=O)CSc1nc2sc3c(c2c(=O)n1-c1ccc(C)cc1)CCN(C)C3 | inconclusive: 1.16 µM [rising, full curve] | 
18 | Cc1nnsc1S(=O)c1ccc(Cl)c(Cl)c1 (centres undefined) | inconclusive: 29.1 µM [cytotoxic, partial curve, poor fit] | 
19 | COc1ccccc1CCn1cnc(Cc2cccc(F)c2)c1C(C)C | inconclusive: 29.1 µM [cytotoxic, single point] | 
20 | O=C1OC(c2ccc(Cl)cc2)=N/C1=C\C=C\c1ccco1 |  | inconclusive: -4.49%
21 | Cc1cccc(C)c1NC(=O)c1nc(S(=O)(=O)Cc2ccccc2)ncc1Cl | inconclusive: 23.1 µM [cytotoxic, partial curve, poor fit] | 
22 | COC(=O)C1=CN(c2ccc3c(c2)OCO3)C(N)=C(C#N)C1c1ccccc1 (centres undefined) | active: 7.31 µM | 
23 | Cc1ccc(-n2nc(-c3ccc(N)cc3)cc2N)cc1 | inactive | 

Row | SMILES | Potency | activity change, negative = cytotoxic
24 | CC(C)OC(=O)c1cc2c(ccn2C)n1CC(=O)N(Cc1ccccc1)c1ccccc1 | inconclusive: 18.4 µM [cytotoxic, single point] | 
25 | CCOC(=O)c1c(C)[nH]c(C2=NNC(=Nc3ccc(OCC)cc3)SC2)c1C | inconclusive: 29.1 µM [cytotoxic, single point] | 
26 | Cc1cccc(C)c1OCC(=O)Nc1oc(-c2ccccc2)c(-c2ccccc2)c1C#N | inconclusive: 29.1 µM [cytotoxic, single point] | 
27 | COc1ccc(OC)c(NC(=O)CSc2n[nH]c(-c3ccccc3Cl)n2)c1 | inactive | 
28 | C[C@@]12C(=O)Nc3cc(Cl)ccc3C(=O)N1[C@H]1c3cc(Cl)ccc3OC[C@@H]1[C@@H]2c1ccccc1 | inconclusive: 29.1 µM [cytotoxic, single point] | 
29 | Cc1[nH]n(-c2ccc([N+](=O)[O-])cc2)c(=O)c1C=NCCc1ccc(S(N)(=O)=O)cc1 | inconclusive: 10.3 µM [cytotoxic, partial curve] | 
30 | C=CCNc1nc(-c2sc(NC(=O)C(C)(C)C)nc2C)c(-n2cc(-c3ccccc3)nn2)s1 | inconclusive: 23.1 µM [cytotoxic, single point] | 
31 | C/C(=N\NC(=S)NCCc1ccccc1)c1ccc(Cl)cc1Cl | inconclusive: 29.1 µM [cytotoxic, single point] | 
32 | O=C(COC(=O)c1ccc2c(c1[N+](=O)[O-])C(=O)c1ccccc1C2=O)NC1CC1 | inconclusive: 23.1 µM [cytotoxic, partial curve, poor fit] | 
33 | CCCc1cc(NC(=O)CCl)n(-c2ccccc2)n1 | inconclusive: 32.6 µM [cytotoxic, single point] | 
34 | Fc1ccc2c(c1)c1n[nH]c(=S)nc1n2CCc1ccccc1 | inconclusive: 29.1 µM [cytotoxic, single point] | 
35 | COc1ccc(Oc2c(C=O)c3ccccc3n2C)cc1 | inactive | 
36 | CCc1ccc2nc(-c3cccc(C)c3)nc(SCC(=O)NCC3CCCO3)c2c1 (centres undefined) | inactive | 
37 | CCOC(=O)c1[nH]ncc1[C@@H]1C[C@H]2CN(Cc3cccc(Cl)c3)C(=O)[C@]23CCCN13 | inconclusive: 0.231 µM [cytotoxic, full curve] | 
38 | Cc1nc(NC(=O)C23CC4CC(CC(C4)C2)C3)sc1Cc1ccc2c(c1)OCO2 | inconclusive: 10.3 µM [cytotoxic, partial curve, poor fit] | 
39 | CCN(CC)CCNC(=O)Cn1ncc2ccccc2c1=O |  | inconclusive: 7.35%
40 | CCN(C(=O)c1cc2c(s1)-c1c(C)cccc1OC2)c1cc(C)ccc1C | inactive | 
41 | COc1ccc(/C=C2/CCCC(CN(C)C)C2=O)cc1 (centres undefined) | inconclusive: 29.1 µM [cytotoxic, single point] | 
42 | CCOc1cc(S(=O)(=O)n2cc(-c3ccc(F)cc3)c(N)n2)cc(OCC)c1OCC | inconclusive: 16.4 µM [cytotoxic, single point] | 
43 | CC12CCC(C(=O)N3CCCCC3)([C@H](Br)C1=O)C2(C)C (some centres undefined) | inactive | 
44 | O=C(Nc1nc2n(n1)C(c1ccc(F)cc1)C=C(c1ccc(Cl)cc1)N2)c1ccco1 (centres undefined) | inactive | 
45 | Cc1ccc(S(=O)(=O)N2CCC(C(=O)NCCCN3CCCC3=O)CC2)cc1C | inactive | 
46 | Cc1cc(=O)oc2ccc(OCC(=O)N(Cc3ccc(F)cc3)Cc3ccco3)cc12 | inconclusive: 25.9 µM [cytotoxic, partial curve] | 

3 consecutive compounds from above:
Row | SMILES | Potency | activity change, negative = cytotoxic
44 | O=C(Nc1nc2n(n1)C(c1ccc(F)cc1)C=C(c1ccc(Cl)cc1)N2)c1ccco1 (centres undefined) | inactive | 
45 | Cc1ccc(S(=O)(=O)N2CCC(C(=O)NCCCN3CCCC3=O)CC2)cc1C | inactive | 
46 | Cc1cc(=O)oc2ccc(OCC(=O)N(Cc3ccc(F)cc3)Cc3ccco3)cc12 | inconclusive: 25.9 µM [cytotoxic, partial curve] | 

Next records:

Row | SMILES | Potency | activity change, negative = cytotoxic
47 | Cc1onc(-c2c(Cl)cccc2Cl)c1COC(=O)c1ccc(Cl)cc1[N+](=O)[O-] |  | inconclusive: 0%
48 | Cc1noc(C)c1CSc1nc2ccccc2n1CCc1ccccc1 | inconclusive: 29.1 µM [cytotoxic, single point] | 
49 | COC(=O)c1c(SCC(=O)Nc2cccc(C(F)(F)F)c2)[nH]c2ccccc2c1=O | inconclusive: 5.8 µM [cytotoxic, full curve] | 
50 | Cc1ccccc1N1CCN(CCC(=O)Nc2ccc(F)cc2)CC1 | inconclusive: 29.1 µM [cytotoxic, single point] | 
51 | Cc1ccc(N(NC(=O)C(O)(c2ccccc2)c2ccccc2)C(=O)CCl)cc1 | inconclusive: 23.1 µM [cytotoxic, single point] | 
52 | CCOc1ccc(S(=O)(=O)N(C)c2ccc(OCC(=O)NCC3CCCCC3)cc2)cc1 | inconclusive: 18.4 µM [cytotoxic, partial curve, poor fit] | 
53 | COc1ccccc1C(=O)Nc1ccccc1N1CCN(C(=O)c2ccc(Cl)cc2)CC1 | inconclusive: 29.1 µM [cytotoxic, single point] | 
54 | Cc1nn(-c2ccccc2)c2c1C1(C(=O)N(C)c3ccccc31)C(C#N)=C(N)O2 (centres undefined) | inconclusive: 13 µM [rising, partial curve, poor fit] | 
55 | COc1ccc(-n2c(=O)c3ccccc3n(Cc3ccc(F)cc3Cl)c2=O)cc1OC | inactive | 
56 | CCc1ccccc1N1CC(c2nnc(NC(=O)c3ccco3)s2)CC1=O (centres undefined) | inactive | 
57 | Cc1cccc(N2CCN(c3nc4ccccc4c4nc(-c5ccccc5)nn34)CC2)c1C | inactive | 
58 | COc1ccc(N(C(=O)C2COc3ccccc3O2)C(C(=O)NC2CCCCC2)c2ccccc2)cc1OC (centres undefined) | inconclusive: 18.4 µM [cytotoxic, single point] | 
59 | COc1ccccc1C(=O)NCCC(=O)NCCc1ccccc1 | inactive | 
60 | COc1cc(NC(=O)c2cc(-c3ccccc3O)no2)cc(OC)c1OC | inconclusive: 18.4 µM [cytotoxic, single point] | 
61 | CC(=O)Nc1nonc1-c1nnc(SCC(=O)Nc2ccccc2Cl)n1C | inactive | 
62 | Cc1ccc(S(=O)(=O)N(CC(=O)Nc2ccc(Cl)c([N+](=O)[O-])c2)C2CCCCC2)cc1 | inconclusive: 23.1 µM [cytotoxic, single point] | 
63 | O=C(Cn1cc(/C=N/NC(=O)c2ccccc2Br)c2ccccc21)Nc1ccc(F)cc1 | inconclusive: 32.6 µM [cytotoxic, single point] | 
64 | O=C(NCCC1=CCCCC1)c1c(O)nc2sccn2c1=O | inconclusive: 20.6 µM [cytotoxic, single point] | 
65 | CCOc1ccc(C(C)=O)cc1N1C(=O)C2C3C=CC(C3=C(C)C)C2C1=O (centres undefined) | inactive | 
66 | CCCCNC(=O)C1Cc2cc(S(=O)(=O)N3CCCCC3)ccc2N1C(C)=O (centres undefined) | inconclusive: 29.1 µM [cytotoxic, single point] | 
67 | COC(=O)CCn1c(C)cc(C(=O)COc2ccccc2C(N)=O)c1C | inactive | 
68 | Nc1nc(N)c(S(=O)(=O)c2ccccc2)c(Nc2ccc(Br)cc2)n1 | inactive | 
69 | O=C1C2C(C(=O)N1c1ccncc1)C1C=CC2C12CC2 (centres undefined) | inactive | 

From PubChem BioAssay AID1347075 (National Center for Advancing Translational Sciences (NCATS), 2019)
